No constants are given. Whether binding was seen depends on the method and setting. In cells and extracts the contact can be indirect. Here binding means that the protein was enriched with, or labelled near, the bait; the list need not be complete. Tags and fused reporters may be left off the sequences shown.
Molecular target: T1, CLCC1-TurboID fusion protein (human) (UniProt Q96S66)
T1 sequence: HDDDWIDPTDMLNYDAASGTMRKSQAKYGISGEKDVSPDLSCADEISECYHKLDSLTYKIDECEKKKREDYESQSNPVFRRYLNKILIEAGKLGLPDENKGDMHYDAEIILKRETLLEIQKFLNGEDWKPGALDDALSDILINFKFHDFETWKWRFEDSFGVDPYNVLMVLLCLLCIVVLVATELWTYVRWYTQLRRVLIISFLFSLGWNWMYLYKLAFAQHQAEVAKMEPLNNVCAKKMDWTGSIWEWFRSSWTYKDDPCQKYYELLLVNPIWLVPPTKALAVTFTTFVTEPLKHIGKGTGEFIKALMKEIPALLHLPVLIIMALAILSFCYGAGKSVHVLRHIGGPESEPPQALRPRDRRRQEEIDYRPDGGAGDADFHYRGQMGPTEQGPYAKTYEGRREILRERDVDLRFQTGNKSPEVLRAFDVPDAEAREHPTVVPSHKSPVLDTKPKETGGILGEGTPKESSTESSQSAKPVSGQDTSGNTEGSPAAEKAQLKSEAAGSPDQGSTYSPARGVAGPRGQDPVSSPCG
Test: proximity labelling

By UniProt entry, the sequences of proteins in these tests, tags left out.
UniProt P0DTC3: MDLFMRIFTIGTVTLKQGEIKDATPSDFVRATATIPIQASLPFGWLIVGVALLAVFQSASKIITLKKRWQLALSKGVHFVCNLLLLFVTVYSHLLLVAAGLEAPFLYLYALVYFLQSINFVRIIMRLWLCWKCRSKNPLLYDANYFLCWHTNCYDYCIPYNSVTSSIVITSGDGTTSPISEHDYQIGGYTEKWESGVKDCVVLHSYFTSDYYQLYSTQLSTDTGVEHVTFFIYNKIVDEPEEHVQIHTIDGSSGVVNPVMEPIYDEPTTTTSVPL

Substance: FLAG-tagged SARS-CoV-2 ORF3a (from UniProt P0DTC3 1-275)
- binding: binds
